Test: general procedure: Fmoc solid-phase peptide synthesis; Chem-Matrix Rink amide resin (~0.5 mmol/g); HBTU/DIEA and DIC/oxyma pure (double coupling)
Conditions: whole synthesis

| Substance | isolated yield | final HPLC purity |
| --- | --- | --- |
| FSA-8Aoc-SKPIQT-NH2 | 70% | 95% |
| VGAG-8Aoc-FPIQT-NH2 | 62% | 99% |

Source: patent US20200291444A1 (Oxford University Innovation LTD, priority 2017, published 2020)
